# PubChem BioAssay AID540256 (National Center for Advancing Translational Sciences (NCATS), 2011)
# Values joined by “and” are separate entries in the source; they are usually repeats but may differ in a detail not shown here. Identical values can stand only once. The whole screen tested about 300,000 compounds, of which about 3,700 (1.2%) were called active. The shares of active, inactive and inconclusive entries below differ from those in the screen. Calls follow the shape of the full dose curve; tested in HEK293 cells. Potencies of inconclusive entries are doubtful fits and often do not repeat.
# Experiment: qHTS for Inhibitors of binding or entry into cells for Lassa Virus; also: nearly all actives have a fitted effect of over 50% in size
# Conditions: Lassa virus pseudotype entry inhibition, cell reporter; activity change, negative = inhibition: at 37.9 µM (top of the series) unless noted
# % is scaled to controls: 0 for no effect and ±100 for the full control effect; potency is read from the fitted curve at half-maximal effect.
SMILES,Potency,"activity change, negative = inhibition"
O=C1C=C2C=C[C@H]3C[C@]2(O1)[C@@H]1CCCCN13,"inconclusive: 8.2 µM [inhibitor, partial curve]",–
Cc1ccccc1OCC(=O)Nc1ccc(C)c(S(=O)(=O)N2CCCCCC2)c1,"inconclusive: 14.1 µM [inhibitor, partial curve, poor fit]",–
CCCCN(CC)C(=O)CCCn1c(=O)c2cccn2c2ccccc21,–,inactive: -23.8% [at 46.1 µM]
C=CCON/C(CCC)=C1\C(=O)CC(C)(C)CC1=NC,–,inactive: -7.9%
CN(CC(=O)Nc1cccc(S(=O)(=O)N2CCCC2)c1)CC(=O)Nc1ccc(F)c(F)c1F,"inconclusive: 22.4 µM [inhibitor, single point]",–
Cc1ccccc1NC(=O)c1cc2c(=O)n3cccc(C)c3nc2s1,"inconclusive: 10 µM [inhibitor, partial curve, poor fit]",–
Cn1cnc([N+](=O)[O-])c1Sc1ncnc2nc[nH]c12,"inconclusive: 11.2 µM [inhibitor, partial curve, poor fit] and inconclusive: 9.2 µM [inhibitor, partial curve]",–
CCN(c1ccccc1)S(=O)(=O)c1ccc(Cl)c(NC(=O)COC(=O)c2ccc(O)cc2)c1,"inconclusive: 22.4 µM [inhibitor, single point]",–
Cc1cc(C(C)(C)C)oc1C(=O)N(CC(=O)NC1CCCC1)c1ccc(F)cc1,"inconclusive: 7.3 µM [inhibitor, partial curve, poor fit]",–
CCN1CCN(c2nc3c(c(=O)n(C)c(=O)n3C)n2Cc2cccc3ccccc23)CC1,–,inactive: 9.79%
COc1cc(OC)cc(C(=O)N2CCC(n3c(C)nc4cc(F)ccc43)CC2)c1,–,inactive: 9.27%
c1ccc(N2CCN(c3ncccn3)CC2)cc1,"inconclusive: 0.447 µM [activator, partial curve, poor fit]",–
CCCCOC(=O)c1ccc(Nc2ncnc3c2cnn3-c2cccc(C)c2)cc1,–,inactive: 11.6% [at 46.1 µM]
COc1ccccc1Oc1ccc2c(c1)C(=O)N(c1cccc(O)c1)C2=O,"inconclusive: 18.3 µM [activator, single point]",–
N#Cc1c(NC(=O)CSc2nc(-c3ccccc3)cc(C(F)(F)F)n2)sc2c1CCC2,"inconclusive: 2.82 µM [inhibitor, full curve]",–
CCCn1c(CN(C)Cc2ccccc2)nc2c1c(=O)n(C)c(=O)n2C,"inconclusive: 8.2 µM [inhibitor, partial curve, poor fit]",–
Cc1nnsc1S(=O)(=O)Cc1ccccc1C(F)(F)F,"inconclusive: 10 µM [activator, partial curve, poor fit]",–
NS(=O)(=O)c1ccccc1,–,inactive: 17.8%
COC(=O)c1ccc(Sc2ccc(F)cc2)c(N)c1,"inconclusive: 18.3 µM [activator, single point]",–
COc1ccc(-c2nc(SCC(=O)NCc3ccccc3Cl)n[nH]2)cc1,"inconclusive: 2.82 µM [inhibitor, full curve]",–
COc1cc(/C=N/NC(=O)c2cccc([N+](=O)[O-])c2)ccc1OCc1ccc(C)cc1,–,inactive: 8.78%
CN(C)c1ccc(NC(=S)NCC2CCCO2)cc1 (centres undefined),"inconclusive: 16.4 µM [activator, partial curve, poor fit]",–

SMILES,Potency,"activity change, negative = inhibition"
CCN1C(=O)CC2(C[N+]3(C)CCC2CC3)C1=O (centres undefined),"inconclusive: 1.58 µM [activator, partial curve]",–
O=C(ONC1=NCCCCC1)c1ccc([N+](=O)[O-])cc1,"inconclusive: 0.891 µM [inhibitor, full curve, poor fit]",–
Cc1ccc(-c2ccc(/C=N/NC(N)=S)o2)cc1,"inconclusive: 25.1 µM [inhibitor, single point]",–
COCCn1c(C)cc(C(=O)COC(=O)c2ccc(Cl)c(S(N)(=O)=O)c2)c1C,"inconclusive: 15.8 µM [inhibitor, single point]",–
COC(=O)C1=CN(Cc2cccs2)C=C(C(=O)OC)C1c1cccc(O)c1,active: 7.08 µM,–
COc1ccc(Cl)cc1S(=O)(=O)NC(C)C(=O)NCCCn1ccnc1 (centres undefined),"inconclusive: 0.708 µM [inhibitor, full curve, poor fit]",–
CC(=O)c1cc(C(=O)N2CCc3c([nH]c4ccccc34)C2CC(C)C)[nH]n1 (centres undefined),"inconclusive: 31.6 µM [inhibitor, single point]",–
CC(=O)c1ccc(NC(=O)C2CCCNC2=O)cc1 (centres undefined),–,inactive: 12%
C/C(=N\NC(=O)CSCc1ccc(Cl)cc1)c1ccc2c(c1)OCCO2,"inconclusive: 29.1 µM [inhibitor, single point]",–
CC(=O)NC12CC3CC(C1)CC(C(=O)OCC(=O)c1cc(C)n(C)c1C)(C3)C2,"inconclusive: 31.6 µM [inhibitor, single point]",–
Cc1ccc(-c2cc(C(=O)OCC(=O)Nc3cc(C)on3)c3ccccc3n2)c(C)c1,–,inactive: -0.766%
CSc1ccc(C(=O)C2CCCN(Cc3cccn3-c3cccnc3)C2)cc1 (centres undefined),"inconclusive: 35.5 µM [inhibitor, single point]",–
Cc1ccccc1-n1c2nc(=O)n(C)c(=O)c-2cc2ccccc21,–,inactive: 6.18%
CCOc1ccc(N=Cc2c(O)n(-c3ccc(C)c(C)c3)c(=O)[nH]c2=O)cc1,"inconclusive: 7.08 µM [inhibitor, partial curve, poor fit]",–
Cc1ccc(Cl)cc1N(C)C(=O)C1CCCN(c2ncnc3onc(-c4ccc(F)cc4)c23)C1 (centres undefined),"inconclusive: 20 µM [inhibitor, partial curve, poor fit]",–
CCn1c2ccccc2c2nc3ccccc3nc21,"inconclusive: 1.3 µM [activator, partial curve, poor fit]",–
COC(=O)c1cc(COc2ccc3oc(C)c(C(=O)OC(C)C)c3c2)c(C)o1,"inconclusive: 22.4 µM [inhibitor, single point]",–
COc1ccc(CNC(=O)CCNS(=O)(=O)c2ccc3c(c2)CCCC(=O)N3)cc1,"inconclusive: 0.316 µM [inhibitor, full curve, poor fit]",–
CCNc1nc(N)nc(-c2cc(Cl)ccc2O)n1,"inconclusive: 1.41 µM [activator, partial curve, poor fit]",–
CCCc1[nH]nc2c1C(c1ccc(Br)s1)C(C#N)=C(N)O2 (centres undefined),"inconclusive: 22.4 µM [inhibitor, single point]",–
CC(C)(C)c1nc(CN2CCCCC2)cc(CN2CCCCC2)c1O,"inconclusive: 10.3 µM [inhibitor, partial curve, poor fit]",–
Cc1c(Cl)cccc1NC(=O)N1CCCN(c2nc(-c3ccccc3)ns2)CC1,"inconclusive: 6.31 µM [inhibitor, full curve, poor fit]",–

SMILES,Potency,"activity change, negative = inhibition"
Cc1ccc(C)c(-n2cc(CN3CCN(C(=O)c4ncn[nH]4)CC3)c(-c3ccccc3)n2)c1,"inconclusive: 12.6 µM [activator, single point]",–
C/C(=N/NC(=O)c1ccc(Cl)s1)c1cccnc1,"inconclusive: 35.5 µM [activator, single point]",–
COc1ccc(-c2ccc(C(=O)C3CC3)cc2)cc1,"inconclusive: 7.08 µM [inhibitor, partial curve, poor fit]",–
COc1ccc(N(C(=O)/C=C/C(=O)Nc2cc(C)on2)C(C(=O)NC2CCCC2)c2ccccc2C)cc1 (centres undefined),"inconclusive: 25.9 µM [inhibitor, single point]",–
CCOC(=O)c1c(-c2ccccc2)nnn1-c1nc(OCC)nc(N2CCCCC2)n1,"inconclusive: 35.5 µM [inhibitor, single point]",–
O=C(Nc1ccccc1F)c1ccc(COc2ccc(Cl)cc2Cl)o1,"inconclusive: 29.1 µM [inhibitor, single point]",–
COc1ccc(Cl)c2sc(N(CCN(C)C)C(=O)c3ccc4c(c3)OCCO4)nc12,"inconclusive: 35.5 µM [inhibitor, single point]",–
CC1(N=Cc2cc(Cl)ccc2O)COP(=O)(NC2CCCC2)OC1 (centres undefined),"inconclusive: 0.282 µM [activator, partial curve, poor fit]",–
O=C(NCc1nc2ccccc2[nH]1)c1ccccc1F,"inconclusive: 10 µM [activator, partial curve, poor fit]",–
Cc1ccc(CC(=O)NCCCn2ccnc2)cc1,–,inactive: 5.19%
Cc1ccc(-n2cc(CN(C)Cc3nccn3C)c(-c3cccc(C)c3)n2)cc1,"inconclusive: 14.1 µM [inhibitor, single point]",–
N/C(=N\c1nc2c(c(=O)[nH]1)CCC2)Nc1cccc2ccccc12,–,inactive: -10.1%
Nc1c2c(nc3sc4c(c13)CCCCC4)CCCCC2,"inconclusive: 10 µM [inhibitor, partial curve, poor fit]",–
CCCN(CCC)Cc1c(C(=O)N/N=C/c2ccc(C)o2)nnn1-c1nonc1N,–,inactive: -13.9%
O=C(NNC(=O)c1ccncc1)c1ccncc1,"inconclusive: 23.1 µM [activator, single point]",–
CCOC(=O)C1CCN(C(C(=O)NC2CCCCC2)c2ccc(OC)cc2)CC1 (centres undefined),"inconclusive: 1.41 µM [inhibitor, full curve, poor fit]",–
CC(C(=O)Nc1ccccc1)N1C(=O)c2ccccc2C1=O (centres undefined),"inconclusive: 2.82 µM [activator, full curve, poor fit]",–
O=C(Nc1ccc(C(F)(F)F)cc1)c1csc(-c2ccncc2)n1,"inconclusive: 35.5 µM [inhibitor, partial curve, poor fit]",–
Cc1ccc(-c2nnc3sc(C4COc5ccccc5O4)nn23)cc1 (centres undefined),–,inactive: 15.6%
Cc1ccc(-c2nnc(-c3ccccc3Br)o2)cc1,"inconclusive: 10 µM [inhibitor, partial curve, poor fit]",–
